Here are results for two molecules from article PMC12489390.

These are yes or no findings as the source states them, for the method shown. Binding calls can cover weak binding; strength is not graded here.

This experiment has as its target ADAMTS17 ancillary domain (17-AD). The experiment can be described thus: two-hybrid; ULTImate Y2H SCREEN by Hybrigenics Services; bait ADAMTS17-AD (aa 546-1,122) in pB27 (N-LexA-bait-C fusion); Prey Library Human Placenta_RP6; 60 clones processed, 170 million interactions analyzed.

B1: fibulin-3 (FBLN3) (protein, UniProt Q12805 1-493)
chain: MLKALFLTMLTLALVKSQDTEETITYTQCTDGYEWDPVRQQCKDIDECDIVPDACKGGMKCVNHYGGYLCLPKTAQIIVNNEQPQQETQPAEGTSGATTGVVAASSMATSGVLPGGGFVASAAAVAGPEMQTGRNNFVIRRNPADPQRIPSNPSHRIQCAAGYEQSEHNVCQDIDECTAGTHNCRADQVCINLRGSFACQCPPGYQKRGEQCVDIDECTIPPYCHQRCVNTPGSFYCQCSPGFQLAANNYTCVDINECDASNQCAQQCYNILGSFICQCNQGYELSSDRLNCEDIDECRTSSYLCQYQCVNEPGKFSCMCPQGYQVVRSRTCQDINECETTNECREDEMCWNYHGGFRCYPRNPCQDPYILTPENRCVCPVSNAMCRELPQSIVYKYMSIRSDRSVPSDIFQIQATTIYANTINTFRIKSGNENGEFYLRQTSPVSAMLVLVKSLSGPREHIVDLEMLTVSSIGTFRTSSVLRLTIIVGPFSF
B1: the binding result was “binds”.

B2: COL6A2, C-terminal portion of the central triple helical domain and N-terminal portion of VWA domain #C1 (domain or fragment, UniProt P12110-1 480-652)
chain: LGEPGKQGSRGDPGDAGPRGDSGQPGPKGDPGRPGFSYPGPRGAPGEKGEPGPRGPEGGRGDFGLKGEPGRKGEKGEPADPGPPGEPGPRGPRGVPGPEGEPGPPGDPGLTECDVMTYVRETCGCCDCEKRCGALDVVFVIDSSESIGYTNFTLEKNFVINVVNRLGAIAKDP
Turning to B2, the binding entry is “binds”.
